# Source: article doi:10.1101/591974
# Chains of the proteins cited; added tags and fusions are not shown. Lines headed by an entry give the natural chain unless they say otherwise; changes in a name come on top.
# UniProt P55258: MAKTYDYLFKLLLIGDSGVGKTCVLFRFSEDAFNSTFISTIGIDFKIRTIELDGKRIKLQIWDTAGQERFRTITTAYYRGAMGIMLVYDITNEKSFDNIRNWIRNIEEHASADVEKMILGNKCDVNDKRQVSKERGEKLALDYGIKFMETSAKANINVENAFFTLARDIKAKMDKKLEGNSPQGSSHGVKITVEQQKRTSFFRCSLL
# Results are given in words; binding and its absence hold for the method and conditions named. Binding seen in cells or lysates may run through a third protein. Some binding calls cover weakened binding; strength is not graded here. Sequences can lack the tags named with a protein.
# T1: GST-Hs-RAB3A-Q81L (human) (UniProt P20336)
# T1 sequence: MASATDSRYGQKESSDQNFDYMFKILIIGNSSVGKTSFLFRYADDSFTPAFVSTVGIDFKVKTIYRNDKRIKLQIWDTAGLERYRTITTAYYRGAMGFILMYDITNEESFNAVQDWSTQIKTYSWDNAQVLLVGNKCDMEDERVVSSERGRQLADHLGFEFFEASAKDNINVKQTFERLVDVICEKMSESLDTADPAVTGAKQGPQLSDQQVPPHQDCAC
# T2: GST-Rn-RAB27A-Q78L (Rn) (UniProt P23640)
# T2 sequence: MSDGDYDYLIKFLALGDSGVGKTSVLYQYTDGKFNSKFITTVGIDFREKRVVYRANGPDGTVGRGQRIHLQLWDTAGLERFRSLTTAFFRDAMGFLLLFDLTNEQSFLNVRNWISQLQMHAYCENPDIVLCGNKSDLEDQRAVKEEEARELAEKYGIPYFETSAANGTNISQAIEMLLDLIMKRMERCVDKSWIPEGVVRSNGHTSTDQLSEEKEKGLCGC
# B1: AcGFP1-tagged full-length Hs-SPIRE2 (protein, UniProt Q8WWL2 1-714)
# chain: MARAGSCGGAAAGAGRPEPWELSLEEVLKAYEQPLNEEQAWAVCFQGCRGLRGSPGRRLRDTGDLLLRGDGSVGAREPEAAEPATMVVPLASSEAQTVQSLGFAIYRALDWGLDESEERELSPQLERLIDLMANNDSEDSGCGAADEGYGGPEEEEEAEGVPRSVRTFAQAMRLCAARLTDPRGAQAHYQAVCRALFVETLELRAFLARVREAKEMLQKLREDEPHLETPRAELDSLGHTDWARLWVQLMRELRRGVKLKKVQEQEFNPLPTEFQLTPFEMLMQDIRARNYKLRKVMVDGDIPPRVKKDAHELILDFIRSRPPLKQVSERRLRPLPPKQRSLHEKILEEIKQERRLRPVRGEGWAARGFGSLPCILNACSGDAKSTSCINLSVTDAGGSAQRPRPRVLLKAPTLAEMEEMNTSEEEESPCGEVTLKRDRSFSEHDLAQLRSEVASGLQSATHPPGGTEPPRPRAGSAHVWRPGSRDQGTCPASVSDPSHPLLSNRGSSGDRPEASMTPDAKHLWLEFSHPVESLALTVEEVMDVRRVLVKAEMEKFLQNKELFSSLKKGKICCCCRAKFPLFSWPPSCLFCKRAVCTSCSIKMKMPSKKFGHIPVYTLGFESPQRVSAAKTAPIQRRDIFQSLQGPQWQSVEEAFPHIYSHGCVLKDVCSECTSFVADVVRSSRKSVDVLNTTPRRSRQTQSLYIPNTRTLDFK
# What was measured:
# Assay in all cases: pull-down
# [1] = biological target: T1, GST-Hs-RAB3A-Q81L (human)
# GST-Rn-RAB27A-Q78L (Rn) = biological target: T2, GST-Rn-RAB27A-Q78L (Rn)
# [2] = biological target: GST-Mm-RAB8A-Q67L (mouse) (UniProt P55258)
binder,measurement,setting,value
B1,binding,[1],binds weakly
same,binding,GST-Rn-RAB27A-Q78L (Rn),binds weakly
same,binding,[2],binds
